# Assay results as given in patent publication US20040102382A1, “Targeting peptides” (priority 2002, published 2004).
# System: Tumor
# Assay: Phage display tumor selection (Table 2)
row,Sequence,Frequency (number of times the sequence was found/number of sequences done)
1,DAQQLYLSNWRS,3/50
2,SFPTHIDHHVSP,4/50
3,THRPSLPDSSRA,5/50
4,TQSPLNYRPALL,6/50
